Source: PubChem BioAssay AID504774 (Drosophila RNAi Screening Center, 2011)
In all, the deposit lists about 23,000 reagents; shown is an unselected part of those that have a named target and a result. 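Values are quantile-normalised luminescence on an arbitrary scale; higher means more cells surviving MMS.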 Names joined by + are all predicted targets of the reagent. Reagent sequences are not shown.

Aim: 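Knock-downs that shift viability of MMS-exposed cells relative to untreated ones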 (primary screen)
Cell system: Drosophila Kc167 cells
Reagents: long dsRNA against Drosophila genes, about 0.25 µg dsRNA per well
Time to read-out: about 6 days: 3 days knock-down, then 3 days with or without MMS
Challenge: methyl methanesulphonate 0.004% (w/v) for 3 days after knock-down
Detection: 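ATP-dependent luminescence as a measure of live cells in MMS-exposed wells, quantile normalised within each plate, with replicate values also given as a mean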
Direction: mean viability with MMS and viability with MMS: higher = more surviving cells after MMS

| Gene | dsRNA | mean viability with MMS | viability with MMS, replicate 1 | viability with MMS, replicate 2 |
| --- | --- | --- | --- | --- |
| CG34447 (GeneID 5740813) | DRSC00741 | 3.54e6 | 3.99e6 | 4.05e6 |
| CG10154 (GeneID 39509) | DRSC09707 | 3.56e6 | 4.02e6 | 4.04e6 |
| CG30151 (GeneID 246484) | DRSC05888 | 3.43e6 | 3.92e6 | 3.87e6 |
| CG3491 (GeneID 34870) | DRSC01934 | 3.53e6 | 4.01e6 | 4.00e6 |
| CG5846 (GeneID 34326) | DRSC02904 | 3.49e6 | 4.03e6 | 3.86e6 |
| CG30373 (GeneID 246573) | DRSC05081 | 3.46e6 | 3.91e6 | 3.90e6 |
| CG5262 (GeneID 40258) | DRSC11773 | 3.53e6 | 4.08e6 | 3.91e6 |
| CG13949 (GeneID 33266) | DRSC00367 | 3.60e6 | 4.04e6 | 4.19e6 |
| PH4alphaNE1 (GeneID 43625) | DRSC16546 | 3.45e6 | 3.89e6 | 3.96e6 |
| squ (GeneID 2768920) | DRSC01549 | 3.56e6 | 3.97e6 | 4.09e6 |
| wmd (GeneID 37727) | DRSC04436 | 3.59e6 | 3.88e6 | 4.06e6 |
| CR31822 (GeneID 10178843) | DRSC01510 | 3.65e6 | 4.18e6 | 4.04e6 |
| Vta1 (GeneID 38204) | DRSC08604 | 3.58e6 | 3.91e6 | 3.86e6 |
| Vta1 (GeneID 38204) | DRSC22848 | 3.29e6 | 3.85e6 | 3.80e6 |
| CG32267 (GeneID 317946) | DRSC21561 | 3.57e6 | 4.02e6 | 4.07e6 |
| CG42808 + CG42807 | DRSC06370 | 3.61e6 | 4.12e6 | 4.08e6 |
| CG42808 + CG42807 | DRSC06966 | 3.58e6 | 4.17e6 | 4.03e6 |
| c(3)G (GeneID 47765) | DRSC15245 | 3.45e6 | 3.94e6 | 3.90e6 |
| CG3502 (GeneID 37695) | DRSC04381 | 3.79e6 | 4.34e6 | 4.21e6 |
| mEFTu1 (GeneID 44438) | DRSC06959 | 3.78e6 | 4.28e6 | 4.25e6 |
| alpha-PheRS (GeneID 31740) | DRSC18224 | 3.34e6 | 3.45e6 | 3.95e6 |
| CG33464 (retired record) (GeneID 2768843) | DRSC22936 | 3.55e6 | 4.04e6 | 3.99e6 |
| CR33317 (GeneID 8674083) | DRSC02653 | 3.64e6 | 4.07e6 | 4.19e6 |
| dmt (GeneID 41180) | DRSC16932 | 3.16e6 | 3.72e6 | 3.73e6 |

Reformatted: 5 of the entries above
{"Gene":"CG10154 (GeneID 39509)","dsRNA":"DRSC09707","mean viability with MMS":3.56e6,"viability with MMS, replicate 1":4.02e6,"viability with MMS, replicate 2":4.04e6}
{"Gene":"CG30151 (GeneID 246484)","dsRNA":"DRSC05888","mean viability with MMS":3.43e6,"viability with MMS, replicate 1":3.92e6,"viability with MMS, replicate 2":3.87e6}
{"Gene":"CG3491 (GeneID 34870)","dsRNA":"DRSC01934","mean viability with MMS":3.53e6,"viability with MMS, replicate 1":4.01e6,"viability with MMS, replicate 2":4.00e6}
{"Gene":"CG5846 (GeneID 34326)","dsRNA":"DRSC02904","mean viability with MMS":3.49e6,"viability with MMS, replicate 1":4.03e6,"viability with MMS, replicate 2":3.86e6}
{"Gene":"CG30373 (GeneID 246573)","dsRNA":"DRSC05081","mean viability with MMS":3.46e6,"viability with MMS, replicate 1":3.91e6,"viability with MMS, replicate 2":3.90e6}

More results follow:
| Gene | dsRNA | mean viability with MMS | viability with MMS, replicate 1 | viability with MMS, replicate 2 |
| --- | --- | --- | --- | --- |
| mthl2 (GeneID 38636) | DRSC10287 | 3.51e6 | 3.94e6 | 4.04e6 |
| lds (GeneID 45894) | DRSC16988 | 3.51e6 | 3.99e6 | 4.00e6 |
| Tom70 (GeneID 34618) | DRSC02990 | 3.52e6 | 3.95e6 | 3.91e6 |
| Pi4KIIIalpha (GeneID 31247) | DRSC18655 | 3.73e6 | 4.44e6 | 3.97e6 |
| Dlip1 (GeneID 53580) | DRSC18460 | 3.52e6 | 3.98e6 | 3.99e6 |
| Lst (GeneID 36853) | DRSC07146 | 3.58e6 | 4.12e6 | 3.99e6 |
| 4E-T (GeneID 43836) | DRSC17201 | 3.77e6 | 4.37e6 | 4.18e6 |
| 4E-T (GeneID 43836) | DRSC17208 | 3.86e6 | 4.33e6 | 4.38e6 |
| ouib (GeneID 41039) | DRSC14376 | 3.41e6 | 3.90e6 | 3.85e6 |
| CG7573 (GeneID 39272) | DRSC10884 | 3.60e6 | 4.01e6 | 4.11e6 |
| CG33288 (GeneID 2768968) | DRSC11484 | 3.53e6 | 3.96e6 | 4.05e6 |
| CG2211 (GeneID 38157) | DRSC08559 | 3.54e6 | 4.08e6 | 3.95e6 |
| Ku80 (GeneID 34930) | DRSC02699 | 3.51e6 | 4.06e6 | 3.91e6 |
| pod1 (GeneID 31620) | DRSC18362 | 3.65e6 | 4.19e6 | 4.19e6 |
| Acp53C14b (GeneID 36873) | DRSC06569 | 3.54e6 | 4.04e6 | 3.99e6 |
| ninaG (GeneID 41369) | DRSC16102 | 3.54e6 | 3.93e6 | 4.11e6 |
| CG34025 (GeneID 3885633) | DRSC08014 | 3.59e6 | 4.19e6 | 3.94e6 |
| CG17362 (GeneID 39545) | DRSC10267 | 3.34e6 | 3.80e6 | 3.71e6 |
| Cyp4s3 (GeneID 32444) | DRSC20241 | 3.54e6 | 3.93e6 | 4.11e6 |
| Cyp4s3 (GeneID 32444) | DRSC22340 | 3.46e6 | 3.95e6 | 3.93e6 |
| Inos (GeneID 35671) | DRSC07655 | 3.49e6 | 3.90e6 | 4.05e6 |
| Nup58 (GeneID 42342) | DRSC16235 | 3.26e6 | 3.72e6 | 3.73e6 |
| wrd (GeneID 42169) | DRSC16337 | 3.00e6 | 3.59e6 | 3.63e6 |
| wrd (GeneID 42169) | DRSC16344 | 3.61e6 | 3.89e6 | 4.30e6 |
| wrd (GeneID 42169) | DRSC23189 | 3.52e6 | 3.98e6 | 4.04e6 |
| oys (GeneID 36045) | DRSC05203 | 3.39e6 | 3.68e6 | 3.96e6 |
| oys (GeneID 36045) | DRSC06751 | 3.66e6 | 4.20e6 | 4.11e6 |
| CG30034 (retired record) (GeneID 246407) | DRSC05288 | 3.43e6 | 3.90e6 | 3.96e6 |
| dally (GeneID 39013) | DRSC08954 | 3.58e6 | 3.96e6 | 4.14e6 |
| dally (GeneID 39013) | DRSC11338 | 3.53e6 | 4.06e6 | 3.95e6 |
| OtopLa (GeneID 8674066) | DRSC17787 | 3.88e6 | 4.39e6 | 4.51e6 |
| OtopLa (GeneID 8674066) | DRSC18133 | 3.72e6 | 4.19e6 | 4.25e6 |
| OtopLa (GeneID 8674066) | DRSC23226 | 3.48e6 | 4.07e6 | 3.86e6 |
| CG7252 (GeneID 39353) | DRSC10789 | 3.65e6 | 4.11e6 | 4.18e6 |
| CG7252 (GeneID 39353) | DRSC21492 | 3.75e6 | 4.23e6 | 4.22e6 |
| IRSp53 (GeneID 39258) | DRSC10891 | 3.48e6 | 3.86e6 | 4.02e6 |
| CG4712 (GeneID 36469) | DRSC06882 | 3.68e6 | 4.25e6 | 4.15e6 |
| CG10853 (GeneID 38465) | DRSC08164 | 3.60e6 | 3.99e6 | 4.15e6 |
| CG15594 (GeneID 40768) | DRSC12280 | 3.40e6 | 3.85e6 | 3.89e6 |
| CG42296 (GeneID 53544) | DRSC00394 | 3.39e6 | 3.82e6 | 3.80e6 |
| CG15046 (GeneID 32833) | DRSC19622 | 3.29e6 | 3.64e6 | 3.72e6 |
| hale (GeneID 40183) | DRSC10882 | 3.49e6 | 3.96e6 | 3.93e6 |
| mRpL19 (GeneID 41028) | DRSC16367 | 3.66e6 | 4.27e6 | 4.22e6 |
| mRpL19 (GeneID 41028) | DRSC21618 | 3.73e6 | 4.14e6 | 4.27e6 |
